# Publication PMC6274985
# By UniProt entry, the sequences of proteins in these tests, tags left out.
# UniProt O15379: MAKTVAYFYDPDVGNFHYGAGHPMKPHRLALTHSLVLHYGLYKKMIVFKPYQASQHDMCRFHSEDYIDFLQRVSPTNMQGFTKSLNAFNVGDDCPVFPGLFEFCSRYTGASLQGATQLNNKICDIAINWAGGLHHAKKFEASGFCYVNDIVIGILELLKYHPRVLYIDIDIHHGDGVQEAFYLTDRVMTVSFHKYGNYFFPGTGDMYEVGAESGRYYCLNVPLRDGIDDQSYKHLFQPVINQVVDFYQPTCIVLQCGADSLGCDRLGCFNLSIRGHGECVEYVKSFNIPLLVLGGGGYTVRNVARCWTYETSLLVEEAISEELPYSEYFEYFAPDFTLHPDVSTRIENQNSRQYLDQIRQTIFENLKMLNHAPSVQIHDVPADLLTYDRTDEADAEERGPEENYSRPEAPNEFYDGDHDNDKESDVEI
# No constants are given. Whether binding was seen depends on the method and setting. Binding seen in cells or lysates may run through a third protein. Some binding calls cover weakened binding; strength is not graded here.
# Target: hemagglutinin (HA)-tagged forkhead box O1 (FoxO1) (UniProt Q9R1E0)
substance,measurement,value
flag-tagged histone deacetylase 3 (HDAC3) (from UniProt O15379 1-428) (enzyme),binding,binds
